The structures appear in SMILES notation. This is one part of the list. Single values are uncertain, as repeats are few or missing.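 Cells were imaged in 1,536-well plates, and nuclei stained with an antibody against cleaved PARP were counted against all DNA-stained nuclei to give the apoptosis fraction. Screening doses were chosen to leave most cells alive, and resting and induced cleaved-PARP levels differ strongly between cell lines.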

The record followed here is the supplement of paper PMC4604168 (melanoma cell lines).

For one test, the system named is CBRC008 (line from a melanoma biopsy). Kind of test: cleaved PARP positive nuclei fraction relative to DMSO control; melanoma cells; higher = more apoptosis. As to conditions: library dose: low library concentration; 72 h.
With `CC(C)C[C@H](NC(=O)[C@H](Cc1ccccc1)NC(=O)c1cnccn1)B(O)O` [Bortezomib] + Cn1c(Nc2ccc(C(F)(F)F)cc2)nc2cc(Oc3ccnc(-c4ncc(C(F)(F)F)[nH]4)c3)ccc21 [CHIR265] (first compound 0.001 µM, partner dose 0.08 µM), the “cleaved PARP positive nuclei fraction” value worked out at 1080%.

For the compound `Cn1c(=O)n(-c2ccc(C(C)(C)C#N)cc2)c2c3cc(-c4cnc5ccccc5c4)ccc3ncc21` + C[C@]1(c2nc3c(C(N)=O)cccc3[nH]2)CCCN1 [Veliparib] (first compound 0.004 µM, partner dose 1.4 µM), the “cleaved PARP positive nuclei fraction” value was determined as 138%. Regarding `CS(=O)(=O)CCNCc1ccc(-c2ccc3ncnc(Nc4ccc(OCc5cccc(F)c5)c(Cl)c4)c3c2)o1` [lapatinib] + COCC[n+]1c2c(n(Cc3cnccn3)c1C)C(=O)c1ccccc1C2=O [YM155] (first compound 0.8 µM, partner dose 0.0004 µM), the “cleaved PARP positive nuclei fraction” value turned out to be 516%.

On to `CCCS(=O)(=O)Nc1ccc(F)c(C(=O)c2c[nH]c3ncc(Cl)cc23)c1F` + Nc1nc(F)nc2c1ncn2[C@@H]1O[C@H](CO)[C@@H](O)[C@@H]1O [fludarabine] (first compound 0.08 µM, partner dose 0.2 µM), for which the “cleaved PARP positive nuclei fraction” value was 48.9%. For the compound `Cc1cc(Nc2cc(N3CCN(C)CC3)nc(/C=C/c3ccccc3)n2)n[nH]1` + CO[C@H]1C[C@@H]2CC[C@@H](C)[C@@](O)(O2)C(=O)C(=O)N2CCCC[C@H]2C(=O)O[C@H]([C@H](C)C[C@@H]2CC[C@@H](OCCO)[C@H](OC)C2)CC(=O)[C@H](C)/C=C(\C)[C@@H](O)[C@@H](OC)C(=O)[C@H](C)C[C@H](C)/C=C/C=C/C=C/1C [everolimus] (first compound 0.04 µM, partner dose 0.02 µM), the “cleaved PARP positive nuclei fraction” value worked out at 448%. Take `CCCS(=O)(=O)Nc1ccc(F)c(C(=O)c2c[nH]c3ncc(Cl)cc23)c1F` + Nc1ncn([C@H]2C[C@H](O)[C@@H](CO)O2)c(=O)n1 [decitabine] (first compound 0.08 µM, partner dose 0.1 µM): the “cleaved PARP positive nuclei fraction” value was 153%.

The test system of another test is CBRC014 (line from a melanoma biopsy). The test is described as above. As to conditions: library dose: low library concentration; 72 h.
On to `Cn1c(=O)n(-c2ccc(C(C)(C)C#N)cc2)c2c3cc(-c4cnc5ccccc5c4)ccc3ncc21` + CN1CCN(c2ccc3nc(-c4c(N)c5c(F)cccc5[nH]c4=O)[nH]c3c2)CC1 [Dovitinib] (first compound 0.004 µM, partner dose 0.1 µM), for which the “cleaved PARP positive nuclei fraction” value was 96.9%. As for `O=C(O)c1ccc2c(c1)nc(Nc1cccc(Cl)c1)c1ccncc12` + COc1ccc(Cl)c(Nc2nc3ccccc3nc2NS(=O)(=O)c2cccc(NC(=O)C(C)(C)N)c2)c1 [XL147] (first compound 0.4 µM, partner dose 0.8 µM), the “cleaved PARP positive nuclei fraction” value came to 187%.

On to `CNC(=O)c1cc(Oc2ccc(NC(=O)Nc3ccc(Cl)c(C(F)(F)F)c3)cc2)ccn1` [sorafenib] + OCc1c[nH]c2ccccc12 [Indole-3-carbinol] (first compound 0.4 µM, partner dose 0.8 µM), for which the “cleaved PARP positive nuclei fraction” value came out at 108%. Still for that read-out and setting: to `CO[C@H]1C[C@@H]2CC[C@@H](C)[C@@](O)(O2)C(=O)C(=O)N2CCCC[C@H]2C(=O)O[C@H]([C@H](C)C[C@@H]2CC[C@@H](OCCO)[C@H](OC)C2)CC(=O)[C@H](C)/C=C(\C)[C@@H](O)[C@@H](OC)C(=O)[C@H](C)C[C@H](C)/C=C/C=C/C=C/1C` [everolimus] + O=C(O)c1ccc2c(c1)nc(Nc1cccc(Cl)c1)c1ccncc12 [CX4945] (first compound 0.02 µM, partner dose 0.4 µM) belongs 167%. The same measure, in the same setting: to `Cn1c(=O)n(-c2ccc(C(C)(C)C#N)cc2)c2c3cc(-c4cnc5ccccc5c4)ccc3ncc21` + O=C(O)c1ccc2c(c1)nc(Nc1cccc(Cl)c1)c1ccncc12 [CX4945] (first compound 0.004 µM, partner dose 0.4 µM) belongs 108%; to `CNC(=O)c1cc(Oc2ccc(NC(=O)Nc3ccc(Cl)c(C(F)(F)F)c3)cc2)ccn1` [sorafenib] + Cn1c(Nc2ccc(C(F)(F)F)cc2)nc2cc(Oc3ccnc(-c4ncc(C(F)(F)F)[nH]4)c3)ccc21 [CHIR265] (first compound 0.4 µM, partner dose 0.08 µM), 110%. `Cc1cc(Nc2cc(N3CCN(C)CC3)nc(/C=C/c3ccccc3)n2)n[nH]1` + NC1(c2ccc(-c3nc4ccn5c(=O)[nH]nc5c4cc3-c3ccccc3)cc2)CCC1 [MK2206] (first compound 0.04 µM, partner dose 0.4 µM): the “cleaved PARP positive nuclei fraction” value was found to be 95%.

For `CC(C)C[C@H](NC(=O)[C@H](Cc1ccccc1)NC(=O)c1cnccn1)B(O)O` [Bortezomib] + CS(=O)(=O)CCNCc1ccc(-c2ccc3ncnc(Nc4ccc(OCc5cccc(F)c5)c(Cl)c4)c3c2)o1 [lapatinib] (first compound 0.001 µM, partner dose 0.8 µM), the “cleaved PARP positive nuclei fraction” value is 202%.

Regarding `CO[C@H]1C[C@@H]2CC[C@@H](C)[C@@](O)(O2)C(=O)C(=O)N2CCCC[C@H]2C(=O)O[C@H]([C@H](C)C[C@@H]2CC[C@@H](OCCO)[C@H](OC)C2)CC(=O)[C@H](C)/C=C(\C)[C@@H](O)[C@@H](OC)C(=O)[C@H](C)C[C@H](C)/C=C/C=C/C=C/1C` [everolimus] + Cn1nnc2c(C(N)=O)ncn2c1=O [temozolomide] (first compound 0.02 µM, partner dose 2 µM), the “cleaved PARP positive nuclei fraction” value came out at 128%. As to `O=C(O)[C@@H]1[O][Sb](=[O])([O][Sb]2(=[O])[O][C@H]([C@H](O)CO)[C@H](O)[C@H](C(=O)O)[O]2)[O][C@H]([C@H](O)CO)[C@@H]1O` (stereo partly drawn) [stibogluconate] + C#Cc1cccc(Nc2ncnc3cc(OCCOC)c(OCCOC)cc23)c1 [erlotinib] (first compound 2 µM, partner dose 0.8 µM), the “cleaved PARP positive nuclei fraction” value amounted to 95.6%. On the same count and under the same terms, the figure for `C=C(c1ccc(C(=O)O)cc1)c1cc2c(cc1C)C(C)(C)CCC2(C)C` [Bexarotene] + Nc1nc(F)nc2c1ncn2[C@@H]1O[C@H](CO)[C@@H](O)[C@@H]1O [fludarabine] (first compound 2 µM, partner dose 0.2 µM) is 110%; for `CNC(=O)c1cc(Oc2ccc(NC(=O)Nc3ccc(Cl)c(C(F)(F)F)c3)cc2)ccn1` [sorafenib] + C=CCNC1=C2C[C@@H](C)C[C@H](OC)[C@H](O)[C@@H](C)/C=C(\C)[C@H](OC(N)=O)[C@@H](OC)/C=C\C=C(/C)C(=O)NC(=CC1=O)C2=O [Tanespimycin] (first compound 0.4 µM, partner dose 0.002 µM) it is 111%. As for `Cn1c(=O)n(-c2ccc(C(C)(C)C#N)cc2)c2c3cc(-c4cnc5ccccc5c4)ccc3ncc21` + Nc1ncn([C@H]2C[C@H](O)[C@@H](CO)O2)c(=O)n1 [decitabine] (first compound 0.004 µM, partner dose 0.1 µM), the “cleaved PARP positive nuclei fraction” value was found to be 107%.

As for `CC(C)C[C@H](NC(=O)[C@H](Cc1ccccc1)NC(=O)c1cnccn1)B(O)O` [Bortezomib] + C=C(c1ccc(C(=O)O)cc1)c1cc2c(cc1C)C(C)(C)CCC2(C)C [Bexarotene] (first compound 0.001 µM, partner dose 2 µM), the “cleaved PARP positive nuclei fraction” value is 384%.

Take `CCCS(=O)(=O)Nc1ccc(F)c(C(=O)c2c[nH]c3ncc(Cl)cc23)c1F` + COCC[n+]1c2c(n(Cc3cnccn3)c1C)C(=O)c1ccccc1C2=O [YM155] (first compound 0.08 µM, partner dose 0.0004 µM): the “cleaved PARP positive nuclei fraction” value is 94%.

Turning to `CN1CCN(c2ccc3nc(-c4c(N)c5c(F)cccc5[nH]c4=O)[nH]c3c2)CC1` [Dovitinib] + Cn1c(Nc2ccc(C(F)(F)F)cc2)nc2cc(Oc3ccnc(-c4ncc(C(F)(F)F)[nH]4)c3)ccc21 [CHIR265] (first compound 0.1 µM, partner dose 0.08 µM), the “cleaved PARP positive nuclei fraction” value is 139%.

Take `Cn1c(=O)n(-c2ccc(C(C)(C)C#N)cc2)c2c3cc(-c4cnc5ccccc5c4)ccc3ncc21` + Cn1nnc2c(C(N)=O)ncn2c1=O [temozolomide] (first compound 0.004 µM, partner dose 2 µM): the “cleaved PARP positive nuclei fraction” value worked out at 116%. On to `CC(C)C[C@H](NC(=O)[C@H](Cc1ccccc1)NC(=O)c1cnccn1)B(O)O` [Bortezomib] + C[C@@H](Oc1cc(-c2cnn(C3CCNCC3)c2)cnc1N)c1c(Cl)ccc(F)c1Cl [Crizotinib] (first compound 0.001 µM, partner dose 0.2 µM), for which the “cleaved PARP positive nuclei fraction” value was 189%.

In the case of `O=C(O)[C@@H]1[O][Sb](=[O])([O][Sb]2(=[O])[O][C@H]([C@H](O)CO)[C@H](O)[C@H](C(=O)O)[O]2)[O][C@H]([C@H](O)CO)[C@@H]1O` (stereo partly drawn) [stibogluconate] + OCc1c[nH]c2ccccc12 [Indole-3-carbinol] (first compound 2 µM, partner dose 0.8 µM), the “cleaved PARP positive nuclei fraction” value was found to be 79.4%.

For the compound `C=C(c1ccc(C(=O)O)cc1)c1cc2c(cc1C)C(C)(C)CCC2(C)C` [Bexarotene] + Cn1nnc2c(C(N)=O)ncn2c1=O [temozolomide] (first compound 2 µM, partner dose 2 µM), the “cleaved PARP positive nuclei fraction” value was found to be 138%. As to `Nc1ncn([C@H]2C[C@H](O)[C@@H](CO)O2)c(=O)n1` [decitabine] + C[C@]1(c2nc3c(C(N)=O)cccc3[nH]2)CCCN1 [Veliparib] (first compound 0.1 µM, partner dose 1.4 µM), the “cleaved PARP positive nuclei fraction” value was determined as 78.5%.

`CN1CCN(c2ccc3nc(-c4c(N)c5c(F)cccc5[nH]c4=O)[nH]c3c2)CC1` [Dovitinib] + Nc1nc(F)nc2c1ncn2[C@@H]1O[C@H](CO)[C@@H](O)[C@@H]1O [fludarabine] (first compound 0.1 µM, partner dose 0.2 µM): the “cleaved PARP positive nuclei fraction” value was 85%.
